Results from patent publication US20260306460A1, “COMPOSITION FOR REMOVING AND INHIBITING SENESCENT CELLS, AND USES THEREOF” (LIFECEUTIX CO., LTD., priority 2023, published 2026).

Tested on: naturally aged mice
Assay: Anti-aging evaluation in naturally aged mice, Example 31, Table 55;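 note: Vehicle-dosed control mice received solution alone at matching volume, values compare test-compound-treated aged mice against that control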
Format: in vivo, mouse
Conditions: untreated = 100%

COc1cc(OC)cc(N(CCNC(C)C)c2ccc3ncc(-c4cnn(C)c4)nc3c2)c1 [LX-1903, Erdafitinib]
Kidney Agtr1a mRNA: 78%
